Measurements as given in paper PMC8975815.
No constants are given. Whether binding was seen depends on the method and setting. Binding seen in cells or lysates may run through a third protein. Some entries that bind do so weakly or less than the wild type.

Sequences of proteins named here, by UniProt entry; tags and fusion partners are left off.
UniProt Q9UKI2: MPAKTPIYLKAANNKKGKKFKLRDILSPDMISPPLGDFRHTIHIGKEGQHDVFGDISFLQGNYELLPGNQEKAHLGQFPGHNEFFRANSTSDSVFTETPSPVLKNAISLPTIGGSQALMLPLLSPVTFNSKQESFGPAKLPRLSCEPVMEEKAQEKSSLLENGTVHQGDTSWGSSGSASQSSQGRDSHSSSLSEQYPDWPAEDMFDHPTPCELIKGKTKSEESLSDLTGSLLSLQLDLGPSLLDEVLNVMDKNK
UniProt P01106: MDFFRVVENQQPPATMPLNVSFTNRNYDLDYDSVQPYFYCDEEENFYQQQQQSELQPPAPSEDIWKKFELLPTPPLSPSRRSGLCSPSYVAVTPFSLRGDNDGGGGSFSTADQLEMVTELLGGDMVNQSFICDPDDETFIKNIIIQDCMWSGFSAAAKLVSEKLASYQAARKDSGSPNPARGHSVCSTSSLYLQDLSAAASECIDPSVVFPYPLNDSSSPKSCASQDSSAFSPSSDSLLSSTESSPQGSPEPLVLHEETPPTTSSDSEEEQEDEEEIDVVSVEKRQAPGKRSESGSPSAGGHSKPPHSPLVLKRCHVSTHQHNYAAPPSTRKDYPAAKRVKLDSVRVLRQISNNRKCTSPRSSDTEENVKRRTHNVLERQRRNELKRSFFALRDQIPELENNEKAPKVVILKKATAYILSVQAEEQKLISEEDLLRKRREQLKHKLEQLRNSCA

Target: CDC42EP3 (CDC42 effector protein 3) (human) (UniProt Q9UKI2)
Test: co-IP; protein lysate (1.0~1.2 mg) of U251 cells incubated with antibodies at 4 °C overnight, then with beads for 2 h at 4 °C; washed three times; SDS-PAGE and Western blot

c-Myc (from UniProt P01106 1-454)
binding: binds
